The target of this experiment is recombinant form of the human P-selectin ectodomain (spanning the 42-771 sequence of the preprotein) (human) (UniProt P16109). Kind of experiment: ELISA; solid phase binding assay: 96-well Maxisorp plates coated with the indicated amounts of P-selectin ectodomain or C1q, incubated with the A48 or D48 PTX3 variant (both at 3 nM); bound protein revealed with an anti-human PTX3 polyclonal antibody, OD 450 nm; both purified. For orientation: An ELISA detects its analyte on a solid surface through an enzyme-linked reagent.

Protein sequences, listed by entry. Tags and fused reporters are not part of them. Lines headed by an entry give the natural chain unless they say otherwise; changes in a name come on top. Residues count along the entry.
UniProt P16109, residues 42-771: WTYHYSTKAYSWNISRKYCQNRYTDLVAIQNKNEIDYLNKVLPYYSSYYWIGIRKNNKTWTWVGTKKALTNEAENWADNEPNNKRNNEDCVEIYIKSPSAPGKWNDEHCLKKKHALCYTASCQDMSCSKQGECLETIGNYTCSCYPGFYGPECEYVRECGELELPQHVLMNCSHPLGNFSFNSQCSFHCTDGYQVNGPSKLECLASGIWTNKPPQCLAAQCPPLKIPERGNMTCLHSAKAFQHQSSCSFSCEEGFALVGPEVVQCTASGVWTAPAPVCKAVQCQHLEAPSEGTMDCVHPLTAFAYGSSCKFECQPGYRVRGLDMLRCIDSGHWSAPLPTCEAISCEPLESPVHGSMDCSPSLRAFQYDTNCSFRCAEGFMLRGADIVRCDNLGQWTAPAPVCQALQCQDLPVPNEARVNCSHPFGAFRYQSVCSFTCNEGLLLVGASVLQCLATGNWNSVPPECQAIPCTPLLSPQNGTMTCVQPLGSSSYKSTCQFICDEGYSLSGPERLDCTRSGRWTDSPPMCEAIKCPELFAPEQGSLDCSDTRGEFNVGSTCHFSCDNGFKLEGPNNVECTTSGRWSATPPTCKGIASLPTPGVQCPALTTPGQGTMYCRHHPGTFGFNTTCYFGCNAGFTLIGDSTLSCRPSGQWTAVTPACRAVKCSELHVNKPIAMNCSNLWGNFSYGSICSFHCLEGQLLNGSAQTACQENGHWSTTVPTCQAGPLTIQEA
UniProt P26022, residues 18-381: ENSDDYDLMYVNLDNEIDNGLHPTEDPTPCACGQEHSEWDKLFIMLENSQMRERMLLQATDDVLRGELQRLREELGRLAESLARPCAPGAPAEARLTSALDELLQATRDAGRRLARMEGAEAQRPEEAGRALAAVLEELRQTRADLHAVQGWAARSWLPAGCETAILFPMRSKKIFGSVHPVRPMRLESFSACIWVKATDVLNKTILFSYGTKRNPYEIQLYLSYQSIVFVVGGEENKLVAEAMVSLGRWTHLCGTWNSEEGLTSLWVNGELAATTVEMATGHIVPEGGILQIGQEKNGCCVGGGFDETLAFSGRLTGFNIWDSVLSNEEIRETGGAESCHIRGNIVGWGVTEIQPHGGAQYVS

The results in this text go back to publication PMC10266767.

No constants are given. Whether binding was seen depends on the method and setting. Some binding calls cover weakened binding; strength is not graded here.

For “recombinant human PTX3, A48 allelic variant (Ala at position 48 of the preprotein; C allele of the +734A/C polymorphism rs3816527) (from UniProt P26022 18-381)”, the binding result was “binds”. The entry for “recombinant human PTX3, D48 allelic variant (Asp at position 48 of the preprotein; A allele of the +734A/C polymorphism rs3816527) (from UniProt P26022 18-381)” is “binds”.
